The values that follow come from publication PMC11282044.

No constants are given. Whether binding was seen depends on the method and setting. In cells and extracts the contact can be indirect. Some binding calls cover weakened binding; strength is not graded here. Where a sequence is shown, tags or fusion partners need not be part of it.

The target in test [1] is T1, cLUC-ROC1 (rice) (UniProt Q6ZAR0).
T1 sequence: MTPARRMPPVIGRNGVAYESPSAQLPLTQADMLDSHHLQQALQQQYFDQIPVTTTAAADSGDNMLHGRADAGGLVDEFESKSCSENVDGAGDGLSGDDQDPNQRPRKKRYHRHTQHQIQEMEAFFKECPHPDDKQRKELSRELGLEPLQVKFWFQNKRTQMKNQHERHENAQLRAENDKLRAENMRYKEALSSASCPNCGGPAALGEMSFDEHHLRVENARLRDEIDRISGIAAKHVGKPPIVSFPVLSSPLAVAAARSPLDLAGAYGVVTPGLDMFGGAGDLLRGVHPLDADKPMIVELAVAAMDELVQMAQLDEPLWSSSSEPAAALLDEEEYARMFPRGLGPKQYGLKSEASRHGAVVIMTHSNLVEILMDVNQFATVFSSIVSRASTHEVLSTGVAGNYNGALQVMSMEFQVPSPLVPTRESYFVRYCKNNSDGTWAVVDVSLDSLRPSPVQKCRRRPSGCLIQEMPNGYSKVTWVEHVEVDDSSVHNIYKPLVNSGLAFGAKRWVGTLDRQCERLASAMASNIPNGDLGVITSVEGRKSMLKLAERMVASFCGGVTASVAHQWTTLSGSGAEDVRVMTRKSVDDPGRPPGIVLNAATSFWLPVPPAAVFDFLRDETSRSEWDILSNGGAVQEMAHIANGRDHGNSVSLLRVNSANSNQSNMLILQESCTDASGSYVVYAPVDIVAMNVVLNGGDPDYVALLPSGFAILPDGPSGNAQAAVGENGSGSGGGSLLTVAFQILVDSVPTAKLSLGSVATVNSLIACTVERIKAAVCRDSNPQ
The experiment in a line: split reporter; luciferase complementation imaging (LCI) in N. benthamiana leaves, 2 days after infiltration, CCD camera.

The target of test [2] is T1, cLUC-ROC1 (rice). The experiment in a line: split reporter; LCI interaction intensity assay: combinations injected into the same N. benthamiana leaves, with pGreenII 0800-LUC co-transformed; LUC by CCD and LUC/REN by dual luciferase assay, n = 5.
For another test, the target named is T2, ROC1-Flag (rice) (UniProt Q6ZAR0).
T2 sequence: T1 sequence
Nature of the test: co-IP; ROC1-Flag co-expressed with GFP fusions in N. benthamiana; extract in NB1 buffer; anti-FLAG affinity beads, 3 h, 6 washes; blot with anti-GFP.

B1: ROC5-nLUC (protein, UniProt Q6EPF0 1-804)
chain: MSFGGLFDGGGGGGMQFPFASGFASSPALSLALDNAGGGIGGRMLGGGAGAGSSAGGAMTRDTEAENDSRSGSDHLDAISAAGEDDVEDAEPSNSRKRKKRYHRHTPQQIQELEALFKECPHPDEKQRAELSRRLSLDARQVKFWFQNRRTQMKTQLERHENALLKQENDKLRAENMTIREAMRSPMCGSCGSPAMLGEVSLEEQHLRIENARLKDELNRVCALATKFLGKPISLLSPPPLLQPHLSLPMPNSSLELAIGGIGGLGSLGTLPGCMNEFAGGVSSPMGTVITPARATGAAIPSLVGNIDRSVFLELAISAMDELVKMAQMDDPLWVPALPGSPSKEVLNFEEYLHSFLPCIGMKPAGYVSEASRESGLVIIDNSLALVETLMDERRWSDMFSCMIAKATVLEEVSTGIAGSRNGALLLMKAELQVLSPLVPIREVTFLRFCKQLAEGAWAVVDVSIDGLVRDHNSGTAPTGGNVKCRRVPSGCVMQDTPNGYCKVTWVEHTEYDEASVHQLYRPLLRSGLAFGARRWLATLQRQCECLAILMSSATVTANDSTAISQEGKRSMLKLARRMTENFCAGVSASSAREWSKLDGATGSIGEDVRVMARKSVSEPGEPPGVVLSAATSVWVPVAPEKLFNFLRDEQLRAEWDILSNGGPMQEMTQIAKGQRDGNSVSLLRASAVSANQSSMLILQETCTDASGSIVVYAPVDIPAMQLVMNGGDSTYVALLPSGFAILPDGPRIGATGYETGGSLLTVAFQILVNNQPTAKLTVESVETVNNLISCTIKKIKTALQCDA
With B1, the binding entry with cLUC-ROC1 (rice) [1] and with cLUC-ROC1 (rice) [2] was “binds” each time.

B2: ROC1-nLUC (protein, UniProt Q6ZAR0 1-784)
chain: T1 sequence
Take B2: the binding entry is on record as “binds” in the test with cLUC-ROC1 (rice) [1] and “binds weakly” with cLUC-ROC1 (rice) [2].

B3: ROC8-nLUC (protein, UniProt Q69T58 1-710)
chain: MDFGDEPEGSDSQRRRKRYHRHTPRQIQQLEAMFKECPHPDENQRAQLSRELGLEPRQIKFWFQNRRTQMKAQHERADNCFLRAENDKIRCENIAIREALKNVICPTCGGPPVGEDYFDEQKLRMENARLKEELDRVSNLTSKYLGRPFTQLPPATPPMTVSSLDLSVGGMGGPSLDLDLLSGGSSGIPFQLPAPVSDMERPMMAEMATRAMDELIRLAQAGDHIWSKSPGGGVSGGDARETLNVDTYDSIFSKPGGSYRAPSINVEGSRESGLVLMSAVALADVFMDTNKWMEFFPSIVSKAHTIDVLVNGMGGRSESLILMYEELHIMTPAVPTREVNFVRYCRQIEQGLWAIADVSVDLQRDAHFGAPPPRSRRLPSGCLIADMANGYSKVTWVEHMEVEEKSPINVLYRDLVLSGAAFGAHRWLAALQRACERYASLVALGVPHHIAGVTPEGKRSMMKLSQRMVNSFCSSLGASQMHQWTTLSGSNEVSVRVTMHRSTDPGQPNGVVLSAATSIWLPVPCDHVFAFVRDENTRSQWDVLSHGNQVQEVSRIPNGSNPGNCISLLRGLNASQNSMLILQESCTDASGSLVVYSPIDIPAANVVMSGEDPSSIPLLPSGFTILPDGRPGSAAGASTSSAGPLAAARGGGGGGAGGGSVVTVAFQILVSSLPSSKLNAESVATVNGLITTTVEQIKAALNCSAHGHHP
B3: the binding result with cLUC-ROC1 (rice) [1] and with cLUC-ROC1 (rice) [2] was “binds” throughout.

B4: ROC8-GFP (protein, UniProt Q69T58 1-710)
chain: B3 chain
Take B4: the binding entry with ROC1-Flag (rice) was “binds”.
